Source: PubChem BioAssay AID2685 (National Center for Advancing Translational Sciences (NCATS), 2010)
The list shows a part of the results. These are further read-outs of the screen, such as a control signal, another cell line or another target. No call is given for them. Most of these compounds were active or inconclusive in the main read-out, so they are no random draw. The note in brackets gives the kind of curve behind each potency; many fits are weak.

Experiment: qHTS Assay for Lipid Storage Modulators in Drosophila S3 Cells;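 for cell number change: cells counted by Cell Tracker Red CMTPX staining in the red channel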
Conditions: BODIPY lipid droplet fluorescence, 18-24 h; for cell number change: measured here: cell count max response, cells fed with added oleic acid
How it was run: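 Laser-scanning cytometry quantifies lipid droplet accumulation (500–530 nm total intensity; droplet/cell object ratio) in oleic acid-fed (400 uM added) Drosophila S3 cells treated with a concentration series. 20 uM Triacsin C defined 100% inhibition.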

[1] = measured here: cell number channel AC50, cells fed with added oleic acid
[2] = measured here: lipid fluorescence (Fed channel) AC50, cells fed with added oleic acid

With `NC(=O)c1cc(S(=O)(=O)N2CCOCC2)ccc1N1CCCC1` the cell number change was 14.4%, the AC50 [1] was 3.26 µM [rising, partial curve] and the AC50 [2] was 6.51 µM [rising, partial curve, poor fit].

`CC1(C)CC2CC(C)(CN2C(=O)COC(=O)c2n[nH]c(=O)c3ccccc23)C1` (stereo unspecified) showed a cell number change of -26.7%.

For `CCc1cc(C(=O)Cc2ccc(F)cc2)c(O)cc1O`, the cell number change was -62.3%, the AC50 [1] was 13 µM [falling, partial curve] and the AC50 [2] was 13 µM [falling, partial curve].

Work on `CC(=O)c1ccc(S(=O)(=O)N2CCc3ccccc3C2)cc1` yielded a cell number change of 7.04%.

With `CN1C(=O)/C(=C2\SC(=S)N(CCCCCC(=O)O)C2=O)c2ccccc21` the cell number change was -17.8% and the AC50 [2] was 11.6 µM [falling, partial curve].

In the case of `COc1cccc(-c2nc(CS(=O)(=O)CC(=O)Nc3ccc(C(C)=O)cc3)c(C)o2)c1`, the cell number change is reported as -12.4% and the AC50 [2] is reported as 6.51 µM [rising, single point].

With `CC1=NN(C(N)=S)C(=O)C1N=Nc1ccc(Br)cc1` (stereo unspecified) the cell number change was -29.4% and the AC50 [2] was 5.8 µM [falling, full curve].

In the case of `CC(C)(C)CN1CCN(Cc2cccnc2)CC1CCO` (stereo unspecified), the cell number change is reported as 20.1% and the AC50 [2] is reported as 0.13 µM [rising, full curve, poor fit].

For `CCCCOc1ccc(C(=O)N2CCN(CC(=O)Nc3ccc(C)cc3)CC2)cc1OC`, the AC50 [2] was 0.103 µM [falling, full curve, poor fit].

With `O=C(NCc1ccc(F)cc1)c1ccc(CS(=O)(=O)Cc2ccc(F)cc2)o1` the cell number change was -27.7%.

For `Brc1ccccc1OCCCN1CCCC1`, the cell number change was -1.57% and the AC50 [2] was 6.51 µM [falling, single point].

In the case of `Cc1cc(C)n(-c2ccc(C(=O)NC3=NCCS3)cc2)n1`, the cell number change is reported as -24.7% and the AC50 [2] is reported as 0.00517 µM [rising, full curve, poor fit].

In the case of `COc1ccc(NC(=O)Nc2ccc(N3CCCC3=O)cc2)cc1OC`, the cell number change is reported as 34.8% and the AC50 [1] is reported as 3.26 µM [rising, single point].

`CCOc1ccc(S(=O)(=O)Nc2cc(F)ccc2F)c2cccnc12` gave a cell number change of 10.8%.

In the case of `Cc1ccc(NC(=O)COC(=O)CCC(=O)c2cccs2)cc1S(=O)(=O)N1CCOCC1`, the cell number change is reported as 8.64% and the AC50 [1] is reported as 0.00517 µM [rising, full curve, poor fit].

In the case of `Cc1cc(NC(=O)c2noc3c2CCCC3)nn1Cc1ccc(Cl)cc1`, the cell number change is reported as -1.53%, the AC50 [1] is reported as 0.092 µM [falling, full curve, poor fit] and the AC50 [2] is reported as 23.1 µM [falling, partial curve, poor fit].

With `COc1ccc(C(C)=O)cc1CSc1nnc(-c2ccc(Cl)cc2)n1-c1ccccc1` the cell number change was 5.98% and the AC50 [1] was 0.00461 µM [rising, full curve, poor fit].

For `Nc1ccc(C(=O)N/N=C\c2ccc(OC(=O)c3ccccc3Cl)cc2)cc1`, the cell number change was 17.3%, the AC50 [1] was 0.731 µM [falling, partial curve, poor fit] and the AC50 [2] was 0.184 µM [rising, full curve, poor fit].

For `CCOc1ccc2nc(Cl)c(C3CC(c4ccccc4)=NN3C(=O)c3cccs3)cc2c1` (stereo unspecified), the cell number change was -13.7% and the AC50 [2] was 0.58 µM [rising, partial curve, poor fit].

For `CCN(CC)CCNC(=O)CCc1nnc2ccc(N3CCC(C)CC3)nn12`, the cell number change was 41%, the AC50 [1] was 20.6 µM [rising, single point] and the AC50 [2] was 20.6 µM [rising, partial curve, poor fit].

For `CN(C)c1ncc(S(=O)(=O)c2ccccc2)c(-c2ccc(Cl)cc2Cl)n1`, the cell number change was 40% and the AC50 [1] was 2.31 µM [rising, full curve].

In the case of `CSCCC(NC(=O)c1cncc(Br)c1)C(=O)O` (stereo unspecified), the cell number change is reported as -43.8%, the AC50 [1] is reported as 9.2 µM [falling, partial curve, poor fit] and the AC50 [2] is reported as 4.11 µM [falling, partial curve, poor fit].

With `C=CCN1C(c2ccccc2)=CS/C1=C(/C#N)c1nnc(N2CCOCC2)n1-c1ccccc1` the cell number change was 6.58% and the AC50 [2] was 2.91 µM [rising, partial curve, poor fit].

With `CCOCCCNS(=O)(=O)c1ccc(NC(=O)c2ccc(OC)c([N+](=O)[O-])c2)cc1` the AC50 [1] was 7.31 µM [falling, single point].

For `COc1ccc2c(c1)CC[C@@H]1[C@@H]2CC[C@]2(C)C(=O)CC[C@@H]12`, the cell number change was 34.6%, the AC50 [1] was 18.4 µM [rising, partial curve, poor fit] and the AC50 [2] was 18.4 µM [rising, partial curve, poor fit].

With `C/C(=N\Nc1ccccc1[N+](=O)[O-])c1ccc(N2CCOCC2)cc1` the cell number change was -121%, the AC50 [1] was 5.8 µM [falling, full curve] and the AC50 [2] was 18.4 µM [falling, partial curve].

For `Cc1ccccc1Cn1c2ccccc2c2cnn(CC(=O)NCc3ccccn3)c(=O)c21`, the cell number change was 3.05% and the AC50 [2] was 29.1 µM [falling, single point].

`Cc1ccccc1CN1CCC(CNC(=O)C2CCCN(c3ncnc4c3nc3n4CCCCC3)C2)CC1` (stereo unspecified) gave a cell number change of 27.6%.

With `Nc1ncnc(N)c1N=Nc1ccccc1` the cell number change was -42.6%, the AC50 [1] was 20.6 µM [falling, partial curve] and the AC50 [2] was 5.17 µM [falling, full curve].

In the case of `O=C(NNc1nc2c(F)cccc2s1)c1ccc(F)cc1`, the cell number change is reported as 27.9%.

In the case of `CS(=O)(=O)c1ccc(C(=O)NCC(c2ccco2)N2CCCCC2)cc1` (stereo unspecified), the cell number change is reported as 19% and the AC50 [2] is reported as 25.9 µM [falling, partial curve].

`CCN1CCN(C(=O)c2cc3nc(-c4ccccc4)cc(C(F)(F)F)n3n2)CC1` gave a cell number change of -6.48%.

In the case of `O=C(C1CCC(=O)N1Cc1cccnc1)N1CCN(c2ccc(F)cc2)CC1` (stereo unspecified), the cell number change is reported as 38.4%, the AC50 [1] is reported as 5.8 µM [rising, single point] and the AC50 [2] is reported as 6.51 µM [rising, single point].

In the case of `CC(C)CNC(=O)CO/N=C/c1ccccc1Cl`, the cell number change is reported as 44.8% and the AC50 [1] is reported as 29.1 µM [rising, single point].

In the case of `CC(=O)NC1(c2ccccc2)CCN(C(=O)N2CCOCC2)CC1`, the AC50 [2] is reported as 0.146 µM [falling, full curve].

For `Cc1ccc(-n2nc3c(=O)n(CC(=O)NCCCc4ccccc4)nc(C)c3c2C)cc1`, the AC50 [2] was 29.1 µM [falling, single point].
